Laboratory results from article PMC4726005.
These are yes or no findings as the source states them, for the method shown.

Chains of the proteins cited; added tags and fusions are not shown. Residues count along the entry.
UniProt Q92542, residues 664-709: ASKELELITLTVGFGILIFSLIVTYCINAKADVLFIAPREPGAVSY

Key:
[1] = target: human nicastrin TM domain and C-terminus (residues A664-Y709) (human) (UniProt Q92542); test: NMR (1H-15N HSQC spectrum and 15N relaxation analysis); 0.8 mM nicastrin in 200 mM DPC micelles, 20 mM sodium phosphate pH 6.5, 1 mM DTT, 313 K; both purified
[2] = target: human nicastrin TM domain and C-terminus (residues A664-Y709) (human) (UniProt Q92542); test: NMR (1H-15N HSQC spectrum and 15N relaxation analysis); 0.8 mM nicastrin in 100 mM SDS micelles, 20 mM sodium phosphate pH 6.5, 1 mM DTT, 313 K; both purified

- binding [1]: no binding (tested: 0.8 mM)
- binding [2]: no binding (tested: 0.8 mM)
Substance: human nicastrin TM domain and C-terminus (residues A664-Y709) (from UniProt Q92542 664-709) (domain or fragment)
